Results from the supplement of paper PMC10735217.
Counter-ions that a name gives are not always drawn. The list shows a part of the results. Repeats in this data set agree poorly, so a single value says little.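 Human kidney-derived cells stably carry a construct in which eight TEAD-binding elements drive luciferase, measured by luminescence in a drug-repurposing library screen. A hit is any compound whose signal exceeds the plate mean by more than five robust Z scores.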

System: HEK293A TEAD-LUC reporter
Test: TEAD-luciferase reporter activity (YAP activation), robust Z score vs plate; higher = stronger YAP/TEAD activation
Details: 24 h

## C[C@@H](O)[C@H]1C(=O)N2C(C(=O)O)=C(SC3CN(C4=NCCS4)C3)[C@H](C)[C@H]12
Compound concentration: 200 nM
  TEAD-luciferase reporter activity: inactive: 0.165
Compound concentration: 2 uM
  TEAD-luciferase reporter activity: inactive: 0.378
Compound concentration: 10 uM
  TEAD-luciferase reporter activity: inactive: 2.46

## CC(C)C(CS)C(=O)N[C@@H](Cc1ccc(-n2cccn2)cc1)C(=O)O (stereo partly specified)
Compound concentration: 200 nM
  TEAD-luciferase reporter activity: inactive: 1.95
Compound concentration: 2 uM
  TEAD-luciferase reporter activity: inactive: -0.982
Compound concentration: 10 uM
  TEAD-luciferase reporter activity: inactive: -0.144

## NC(=O)c1cc(-c2cc(F)cc(Cl)c2)n(-c2ccc(F)c(Cl)c2)n1
Compound concentration: 200 nM
  TEAD-luciferase reporter activity: inactive: -0.367
Compound concentration: 2 uM
  TEAD-luciferase reporter activity: inactive: -1.35
Compound concentration: 10 uM
  TEAD-luciferase reporter activity: inactive: -0.899

## CC(C)=CCOc1cc(NC(=S)c2ccsc2C)ccc1Cl
Compound concentration: 200 nM
  TEAD-luciferase reporter activity: inactive: 1.17
Compound concentration: 2 uM
  TEAD-luciferase reporter activity: inactive: -0.703
Compound concentration: 10 uM
  TEAD-luciferase reporter activity: inactive: 0.353

## CCCCC1(CCCC)CS(=O)(=O)c2ccc(N(C)C)cc2[C@@H](c2ccc(OCc3ccc(C[N+]45CCN(CC4)CC5)cc3)cc2)[C@H]1O [Lopixibat chloride]
Compound concentration: 200 nM
  TEAD-luciferase reporter activity: inactive: -0.689
Compound concentration: 2 uM
  TEAD-luciferase reporter activity: inactive: 2.53
Compound concentration: 10 uM
  TEAD-luciferase reporter activity: inactive: 0.58

## O=C(CCCN1CCC(C(O)c2ccc(F)cc2)CC1)c1ccc(F)cc1 (stereo unspecified) [dihydrolenperone]
Compound concentration: 200 nM
  TEAD-luciferase reporter activity: inactive: 1.57
Compound concentration: 2 uM
  TEAD-luciferase reporter activity: inactive: -0.0156
Compound concentration: 10 uM
  TEAD-luciferase reporter activity: inactive: 0.743

## COC[C@H](C)Oc1cc(Oc2cnc(C(=O)N3CCC3)cn2)cc(C(=O)O)c1
Compound concentration: 200 nM
  TEAD-luciferase reporter activity: inactive: -0.686
Compound concentration: 2 uM
  TEAD-luciferase reporter activity: inactive: 0.308
Compound concentration: 10 uM
  TEAD-luciferase reporter activity: inactive: -0.311

## CC(=O)N1C[C@H](O)C[C@H]1C(=O)O
Compound concentration: 200 nM
  TEAD-luciferase reporter activity: inactive: 4.02
Compound concentration: 2 uM
  TEAD-luciferase reporter activity: inactive: 2.19
Compound concentration: 10 uM
  TEAD-luciferase reporter activity: inactive: -1.66

## Cc1ccc(C(=O)C(C)CN2CCCCC2)cc1 (stereo unspecified) [tolperisone gel, Gedeon Richter]
Compound concentration: 200 nM
  TEAD-luciferase reporter activity: inactive: -1.23
Compound concentration: 10 uM
  TEAD-luciferase reporter activity: inactive: -0.594

## N=C(N)c1ccc(/C=C/c2ccc(C(=N)N)cc2)cc1
Compound concentration: 200 nM
  TEAD-luciferase reporter activity: inactive: -0.508
Compound concentration: 2 uM
  TEAD-luciferase reporter activity: inactive: 2.11
Compound concentration: 10 uM
  TEAD-luciferase reporter activity: inactive: -0.89

## Cc1cc(OP(=O)(O)O)c2ccccc2c1OP(=O)(O)O [Menadiol sodium diphosphate]
Compound concentration: 200 nM
  TEAD-luciferase reporter activity: inactive: 0.112
Compound concentration: 2 uM
  TEAD-luciferase reporter activity: inactive: 1.34
Compound concentration: 10 uM
  TEAD-luciferase reporter activity: inactive: 0.625

## CC#C[C@@H](CC(=O)O)c1ccc(OCc2cccc(-c3ccc(C(F)(F)F)cc3)c2)cc1
Compound concentration: 200 nM
  TEAD-luciferase reporter activity: inactive: -2.18
Compound concentration: 2 uM
  TEAD-luciferase reporter activity: inactive: -0.444
Compound concentration: 10 uM
  TEAD-luciferase reporter activity: inactive: 0.922

## FC(F)(c1ccc2ncccc2c1)c1nnc2ccc(-c3ccncc3)nn12
Compound concentration: 200 nM
  TEAD-luciferase reporter activity: inactive: -0.294
Compound concentration: 2 uM
  TEAD-luciferase reporter activity: inactive: -0.853
Compound concentration: 10 uM
  TEAD-luciferase reporter activity: inactive: -0.849

## Cc1cccc(C)c1NC(=O)CN1CCN(CCCC(c2ccc(F)cc2)c2ccc(F)cc2)CC1 [lidoflazine]
Compound concentration: 200 nM
  TEAD-luciferase reporter activity: inactive: -0.665
Compound concentration: 2 uM
  TEAD-luciferase reporter activity: inactive: 0.87
Compound concentration: 10 uM
  TEAD-luciferase reporter activity: inactive: -1.3

## CCCc1cc(C(=O)O)ccc1OC(C(=O)NS(=O)(=O)c1ccc(C(C)C)cc1)c1ccc2c(c1)OCO2 (stereo unspecified)
Compound concentration: 200 nM
  TEAD-luciferase reporter activity: inactive: 1.31
Compound concentration: 2 uM
  TEAD-luciferase reporter activity: inactive: -0.465
Compound concentration: 10 uM
  TEAD-luciferase reporter activity: inactive: -0.678

## COC(=O)CCNC(=O)[C@H](O)C(C)(C)COP(=O)(N[C@@H](C)C(=O)OC)Oc1ccccc1 (stereo partly specified)
Compound concentration: 200 nM
  TEAD-luciferase reporter activity: inactive: -1.37
Compound concentration: 2 uM
  TEAD-luciferase reporter activity: inactive: 1.82
Compound concentration: 10 uM
  TEAD-luciferase reporter activity: inactive: -0.163

## CCCCCCCCCCCCCCC[C@@H](O)[C@H](C)N
Compound concentration: 200 nM
  TEAD-luciferase reporter activity: inactive: 0.39
Compound concentration: 2 uM
  TEAD-luciferase reporter activity: inactive: -0.765
Compound concentration: 10 uM
  TEAD-luciferase reporter activity: inactive: -1.26

## O=C1CC(c2c[nH]c3ccc(F)cc23)C(=O)N1 (stereo unspecified)
Compound concentration: 200 nM
  TEAD-luciferase reporter activity: inactive: 0.702
Compound concentration: 2 uM
  TEAD-luciferase reporter activity: inactive: -1.6
Compound concentration: 10 uM
  TEAD-luciferase reporter activity: inactive: 1.46

## CO/N=C(\C(=O)N[C@@H]1C(=O)N2C(C(=O)O)=C(CSc3cnns3)CS[C@H]12)c1csc(N)n1 [Cefuzonam]
Compound concentration: 200 nM
  TEAD-luciferase reporter activity: inactive: 0.818
Compound concentration: 2 uM
  TEAD-luciferase reporter activity: inactive: 0.0925
Compound concentration: 10 uM
  TEAD-luciferase reporter activity: inactive: 1.95

## CC(Cl)C(Cl)(Cl)C(O)O (stereo unspecified)
Compound concentration: 200 nM
  TEAD-luciferase reporter activity: inactive: -1.26
Compound concentration: 2 uM
  TEAD-luciferase reporter activity: inactive: -2.29
Compound concentration: 10 uM
  TEAD-luciferase reporter activity: inactive: 1.67

## C[N+](C)(CC(=O)Nc1ccccc1)CC(=O)Nc1ccccc1
Compound concentration: 200 nM
  TEAD-luciferase reporter activity: inactive: -2.31
Compound concentration: 2 uM
  TEAD-luciferase reporter activity: inactive: 1.03
Compound concentration: 10 uM
  TEAD-luciferase reporter activity: inactive: 0.309

## CCN(CC)CCNc1ccc2ncn3c4ccc(O)cc4c(=O)c1c23 [Imidazoacridi]
Compound concentration: 200 nM
  TEAD-luciferase reporter activity: inactive: -0.219
Compound concentration: 2 uM
  TEAD-luciferase reporter activity: inactive: -0.294
Compound concentration: 10 uM
  TEAD-luciferase reporter activity: inactive: -1.5

## COc1ccc(C(CC(N)=O)N2C(=O)c3ccccc3C2=O)cc1OC1CCCC1 (stereo unspecified)
Compound concentration: 200 nM
  TEAD-luciferase reporter activity: inactive: -1.67
Compound concentration: 2 uM
  TEAD-luciferase reporter activity: inactive: -0.934
Compound concentration: 10 uM
  TEAD-luciferase reporter activity: inactive: -0.358

## CC(C)CCCC(C)N (stereo unspecified)
Compound concentration: 2 uM
  TEAD-luciferase reporter activity: inactive: -1.3

## CC(C)CCCC(C)N (stereo unspecified) [Octodrine]
Compound concentration: 200 nM
  TEAD-luciferase reporter activity: inactive: 0.281
Compound concentration: 10 uM
  TEAD-luciferase reporter activity: inactive: -1.18

## CO[C@@H]1CC(C)(C)C[C@H]2C3=CCC4[C@@]5(C)CC[C@H](O)[C@](C)(CO)C5CC[C@@]4(C)C3(C)CC[C@@]12C (stereo partly specified)
Compound concentration: 200 nM
  TEAD-luciferase reporter activity: inactive: -1.56
Compound concentration: 2 uM
  TEAD-luciferase reporter activity: inactive: -0.519
Compound concentration: 10 uM
  TEAD-luciferase reporter activity: inactive: -0.402

## CC(C)NC(=N)NC(=N)Nc1ccc(Cl)cc1 [Proguanil]
Compound concentration: 200 nM
  TEAD-luciferase reporter activity: inactive: -1.1
Compound concentration: 10 uM
  TEAD-luciferase reporter activity: inactive: -1.36

## CC(C)NC(=N)NC(=N)Nc1ccc(Cl)cc1 [Proguanil hydrochloride]
Compound concentration: 2 uM
  TEAD-luciferase reporter activity: inactive: -1.48

## COc1cc(N)c(Cl)cc1C(=O)N[C@H]1CCN(CCC(=O)Nc2cccc3ncccc23)C[C@H]1OC
Compound concentration: 200 nM
  TEAD-luciferase reporter activity: inactive: -2.04
Compound concentration: 2 uM
  TEAD-luciferase reporter activity: inactive: -2.28
Compound concentration: 10 uM
  TEAD-luciferase reporter activity: inactive: 0.792

## C[C@@H]([C@H](C)O)[C@H](N)C(=O)O
Compound concentration: 200 nM
  TEAD-luciferase reporter activity: inactive: 0.25
Compound concentration: 2 uM
  TEAD-luciferase reporter activity: inactive: -0.736
Compound concentration: 10 uM
  TEAD-luciferase reporter activity: inactive: -0.252

## O=C(O)COc1nn(Cc2ccccc2)c2ccccc12 [bendazac lysinate]
Compound concentration: 200 nM
  TEAD-luciferase reporter activity: inactive: -1.15
Compound concentration: 2 uM
  TEAD-luciferase reporter activity: inactive: 1.68
Compound concentration: 10 uM
  TEAD-luciferase reporter activity: inactive: 1.09

## CCOC(=O)[C@H](CCc1ccccc1)N[C@@H](C)C(=O)N1[C@H](C(=O)O)C[C@H]2CCCC[C@@H]21 [Trandolapril]
Compound concentration: 200 nM
  TEAD-luciferase reporter activity: inactive: -0.782
Compound concentration: 2 uM
  TEAD-luciferase reporter activity: inactive: -1.41
Compound concentration: 10 uM
  TEAD-luciferase reporter activity: inactive: 0.664

## COCCOC(=O)C1=C(C)NC(C)=C(C(=O)OCCOC)C1c1ccc(C)o1
Compound concentration: 200 nM
  TEAD-luciferase reporter activity: inactive: 3.34
Compound concentration: 2 uM
  TEAD-luciferase reporter activity: inactive: -0.372
Compound concentration: 10 uM
  TEAD-luciferase reporter activity: inactive: -0.371

## CCNC(=O)c1nc(-c2ccnn2-c2ccc(C#N)cc2)c(C)n(-c2cccc(C(F)(F)F)c2)c1=O
Compound concentration: 200 nM
  TEAD-luciferase reporter activity: inactive: -1.28
Compound concentration: 2 uM
  TEAD-luciferase reporter activity: inactive: -0.306
Compound concentration: 10 uM
  TEAD-luciferase reporter activity: inactive: -1.52

## CNCCC(Oc1cccc2ccccc12)c1cccs1 (stereo unspecified) [duloxetine hydrochloride]
Compound concentration: 200 nM
  TEAD-luciferase reporter activity: inactive: -0.514
Compound concentration: 2 uM
  TEAD-luciferase reporter activity: inactive: -0.813
Compound concentration: 10 uM
  TEAD-luciferase reporter activity: inactive: 2.01

## CCCCCCCC/C(=C\CCCCCCCC(=O)O)[N+](=O)[O-]
Compound concentration: 200 nM
  TEAD-luciferase reporter activity: inactive: 1.37
Compound concentration: 2 uM
  TEAD-luciferase reporter activity: inactive: 1.12
Compound concentration: 10 uM
  TEAD-luciferase reporter activity: inactive: 0.482
